Assay [1] deals with T1, ADNP^FKBP-3xFLAG-Avi (mouse (endogenous in mouse ES cells)) (UniProt Q9Z103).
T1 sequence: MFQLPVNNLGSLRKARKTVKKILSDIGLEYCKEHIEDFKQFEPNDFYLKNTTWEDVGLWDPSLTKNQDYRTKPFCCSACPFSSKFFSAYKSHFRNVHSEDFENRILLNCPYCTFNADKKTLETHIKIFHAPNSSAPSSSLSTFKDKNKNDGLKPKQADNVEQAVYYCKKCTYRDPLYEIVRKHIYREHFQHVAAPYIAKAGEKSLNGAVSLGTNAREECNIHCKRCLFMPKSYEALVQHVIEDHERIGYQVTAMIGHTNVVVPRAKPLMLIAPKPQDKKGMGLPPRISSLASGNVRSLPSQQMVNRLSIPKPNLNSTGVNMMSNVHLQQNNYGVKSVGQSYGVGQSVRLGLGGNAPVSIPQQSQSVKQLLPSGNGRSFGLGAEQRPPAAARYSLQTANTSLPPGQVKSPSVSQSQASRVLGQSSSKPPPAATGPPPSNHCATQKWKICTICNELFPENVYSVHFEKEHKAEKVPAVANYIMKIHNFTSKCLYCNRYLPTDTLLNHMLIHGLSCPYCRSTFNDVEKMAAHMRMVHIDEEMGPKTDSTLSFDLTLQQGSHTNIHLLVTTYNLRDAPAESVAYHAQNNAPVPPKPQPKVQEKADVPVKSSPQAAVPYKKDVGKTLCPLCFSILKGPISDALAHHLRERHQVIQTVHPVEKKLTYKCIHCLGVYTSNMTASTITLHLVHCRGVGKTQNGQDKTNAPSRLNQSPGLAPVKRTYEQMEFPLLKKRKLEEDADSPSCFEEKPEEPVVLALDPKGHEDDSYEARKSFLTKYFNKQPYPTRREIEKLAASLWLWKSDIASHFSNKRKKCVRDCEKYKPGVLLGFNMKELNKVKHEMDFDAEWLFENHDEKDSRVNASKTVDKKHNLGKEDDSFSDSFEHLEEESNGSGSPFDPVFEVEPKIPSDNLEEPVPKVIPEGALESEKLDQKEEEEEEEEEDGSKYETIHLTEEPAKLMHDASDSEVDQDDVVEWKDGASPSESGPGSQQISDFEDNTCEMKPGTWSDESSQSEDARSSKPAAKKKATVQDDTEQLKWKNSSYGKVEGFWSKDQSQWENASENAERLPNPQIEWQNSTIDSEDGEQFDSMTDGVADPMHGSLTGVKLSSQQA
The assay can be described thus: affinity purification with mass spectrometry; purification of ADNP ('vice versa'); the paper does not tell which experiment.

The target in assay [2] is T2, ADNP2^Avi-3xFLAG (mouse (endogenous in mouse ES cells)) (UniProt Q8CHC8).
T2 sequence: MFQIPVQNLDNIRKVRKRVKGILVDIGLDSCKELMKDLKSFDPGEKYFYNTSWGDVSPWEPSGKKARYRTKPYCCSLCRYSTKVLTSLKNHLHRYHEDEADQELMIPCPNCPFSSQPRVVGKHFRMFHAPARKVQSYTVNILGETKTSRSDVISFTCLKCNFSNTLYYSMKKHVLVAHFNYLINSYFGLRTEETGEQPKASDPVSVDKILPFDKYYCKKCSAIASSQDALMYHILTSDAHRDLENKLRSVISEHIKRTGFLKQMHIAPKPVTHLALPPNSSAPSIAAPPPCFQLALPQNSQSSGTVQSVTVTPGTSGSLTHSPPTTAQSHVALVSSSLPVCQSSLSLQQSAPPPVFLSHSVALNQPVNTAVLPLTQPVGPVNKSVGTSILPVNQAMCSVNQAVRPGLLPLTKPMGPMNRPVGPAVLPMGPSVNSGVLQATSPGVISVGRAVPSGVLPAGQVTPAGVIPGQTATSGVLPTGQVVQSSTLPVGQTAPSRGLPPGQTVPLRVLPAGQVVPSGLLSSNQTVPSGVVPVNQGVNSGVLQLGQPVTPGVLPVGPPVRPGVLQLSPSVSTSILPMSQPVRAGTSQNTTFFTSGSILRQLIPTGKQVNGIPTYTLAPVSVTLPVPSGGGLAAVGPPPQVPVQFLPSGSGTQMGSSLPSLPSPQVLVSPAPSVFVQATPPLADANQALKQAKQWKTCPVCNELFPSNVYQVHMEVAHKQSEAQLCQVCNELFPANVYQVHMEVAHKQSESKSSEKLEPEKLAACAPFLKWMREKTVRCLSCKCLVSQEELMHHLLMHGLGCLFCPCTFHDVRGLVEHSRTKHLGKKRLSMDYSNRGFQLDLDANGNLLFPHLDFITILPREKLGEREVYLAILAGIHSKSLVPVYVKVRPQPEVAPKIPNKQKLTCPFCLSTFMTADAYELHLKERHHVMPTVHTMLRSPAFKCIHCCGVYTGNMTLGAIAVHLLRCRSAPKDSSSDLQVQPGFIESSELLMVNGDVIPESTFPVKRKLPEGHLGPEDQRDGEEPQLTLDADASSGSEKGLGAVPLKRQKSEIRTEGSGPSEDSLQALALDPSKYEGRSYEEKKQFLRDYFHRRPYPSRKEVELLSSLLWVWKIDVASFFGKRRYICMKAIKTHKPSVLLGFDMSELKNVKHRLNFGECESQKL
The assay can be described thus: affinity purification with mass spectrometry; streptavidin M280 Dynabeads on lysate of mouse ES cells expressing ADNP2^Avi-3xFLAG, parental untagged cells as control, 350 mM NaCl, on-bead digestion, LC-MS, n = 3.

Results are given in words; binding and its absence hold for the method and conditions named. In cells and extracts the contact can be indirect. Here binding means that the protein was enriched with, or labelled near, the bait; the list need not be complete. A no says only that the protein was not detected with the bait. Where a sequence is shown, tags or fusion partners need not be part of it.

B1: ADNP2 (protein, UniProt Q8CHC8 1-1165)
chain: T2 sequence
Consider B1, for which the binding entry in assay [1] is reported as “no binding”.

B2: ADNP (protein, UniProt Q9Z103 1-1108)
chain: T1 sequence
With B2, the binding result in assay [2] is “no binding”.
